Structures can show the parent of a compound that is named as a salt.
What was measured:
[1] = Capacity of polymer modified glass fiber monoliths for analytes; settings: PSDVB—NHCOCH3 sorbent; weight adsorbed at 30% breakthrough; N=3
[2] = as above; settings: PSDVB sorbent; weight adsorbed at 30% breakthrough; N=3

SMILES	Amount of analyte adsorbed (sorbent capacity) [1]	Amount of analyte adsorbed (sorbent capacity) [2]
CCCCNCC(O)c1ccc(O)cc1.CCCCNCC(O)c1ccc(O)cc1.O=S(=O)(O)O (stereo not shown) [Bamathan hemisulfate]	2.0 µg	0 µg
CCCC(C)(COC(N)=O)COC(=O)NC(C)C (stereo not shown) [Carisoprodol]	1.2 µg	0 µg
CNC(=C[N+](=O)[O-])NCCSCc1ccc(CN(C)C)o1 [Ranitidine HCl]	1.1 µg	0 µg
CC(C)(C)NCC(O)c1ccc(O)c(CO)c1 (stereo not shown) [Salbutamol]	0 µg	0 µg
CC(C)(C)NC[C@H](O)COc1nsnc1N1CCOCC1 [Timolol maleate]	1.2 µg	0 µg

Source: US7927486B2, “Polymer modified porous substrate for solid phase extraction” (priority 2005, dated 2011)
